Reference: paper PMC12752551
Results are given in words; binding and its absence hold for the method and conditions named. In cells and extracts the contact can be indirect. Some results given as binding are weak or reduced against the parent protein; the word gives no strength. For part of these data: Sequences can lack the tags named with a protein.

Assays:
[1] = molecular target: T1, RFWD3, endogenous (human (endogenous in A549 and H1299)) (UniProt Q6PCD5); test: co-IP; endogenous proteins of A549 and H1299 lysates; antibody (2 µg) and Protein A/G PLUS-Agarose at 4 °C overnight; IP lysis buffer with 137 mM NaCl, 0.5% NP-40; western blot
T1 sequence: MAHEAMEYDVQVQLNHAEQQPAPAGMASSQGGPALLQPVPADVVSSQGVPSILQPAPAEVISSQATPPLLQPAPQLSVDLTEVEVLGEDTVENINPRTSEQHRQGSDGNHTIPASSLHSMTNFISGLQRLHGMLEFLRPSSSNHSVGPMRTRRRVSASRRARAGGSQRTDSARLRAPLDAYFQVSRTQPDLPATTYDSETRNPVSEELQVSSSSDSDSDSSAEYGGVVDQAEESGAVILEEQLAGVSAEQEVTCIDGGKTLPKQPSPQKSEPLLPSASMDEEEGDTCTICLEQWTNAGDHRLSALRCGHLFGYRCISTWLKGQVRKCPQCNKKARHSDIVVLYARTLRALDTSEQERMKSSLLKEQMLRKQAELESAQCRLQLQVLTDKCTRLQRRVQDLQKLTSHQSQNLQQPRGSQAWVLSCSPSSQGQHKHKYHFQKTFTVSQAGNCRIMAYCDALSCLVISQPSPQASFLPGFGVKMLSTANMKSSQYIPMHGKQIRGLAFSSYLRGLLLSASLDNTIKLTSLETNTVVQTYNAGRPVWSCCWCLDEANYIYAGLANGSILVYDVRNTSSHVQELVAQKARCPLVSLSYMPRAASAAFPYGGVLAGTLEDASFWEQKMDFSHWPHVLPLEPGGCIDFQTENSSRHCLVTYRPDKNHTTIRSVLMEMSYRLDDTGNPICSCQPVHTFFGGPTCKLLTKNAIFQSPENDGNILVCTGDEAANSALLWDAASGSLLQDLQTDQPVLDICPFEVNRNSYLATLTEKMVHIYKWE

[2] = molecular target: T1, RFWD3, endogenous (human (endogenous in A549 and H1299)); test: proximity ligation; Duolink in situ PLA with anti-RFWD3 and anti-TREX1 antibodies in fixed H1299 and A549 cells, endogenous proteins; no primary antibodies as negative control
[3] = molecular target: T2, Flag-TREX1 (three-prime repair exonuclease 1) (UniProt Q9NSU2); test: co-IP; competitive co-IP: HEK293T co-transfected with Flag-TREX1, Myc-TRIM24 and HA-RFWD3, one of the latter two in rising amounts (4, 6, 8 µg), 48 h; lysate, western blot
T2 sequence: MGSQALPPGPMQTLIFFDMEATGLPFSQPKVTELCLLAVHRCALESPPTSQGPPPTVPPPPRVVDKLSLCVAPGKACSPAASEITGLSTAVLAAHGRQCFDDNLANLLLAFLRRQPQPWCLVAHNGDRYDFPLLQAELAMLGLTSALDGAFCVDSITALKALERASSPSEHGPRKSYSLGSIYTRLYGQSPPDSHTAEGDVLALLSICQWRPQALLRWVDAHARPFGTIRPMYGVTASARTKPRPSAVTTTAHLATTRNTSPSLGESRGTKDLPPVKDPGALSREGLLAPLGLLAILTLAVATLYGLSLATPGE

[4] = molecular target: T2, Flag-TREX1 (three-prime repair exonuclease 1); test: co-IP; HEK293T transfected with HA-RFWD3 and Flag-TREX1 or empty vector; lysate, Protein A/G PLUS-Agarose, western blot
[5] = molecular target: T2, Flag-TREX1 (three-prime repair exonuclease 1); test: co-IP; A549 or H1299 cells stably expressing RFWD3 shRNA or control, transfected with Flag-TREX1 for 48 h; lysate, western blot

B1: TREX1, endogenous (protein, UniProt Q9NSU2 1-314)
chain: T2 sequence
- binding [1]: binds
- binding [2]: binds

B2: HA-RFWD3 (RING Finger and WD Repeat Domain 3) (protein, UniProt Q6PCD5 1-774)
chain: T1 sequence
- binding [3]: binds
- binding [4]: binds

B3: TRIM24, endogenous (protein, UniProt O15164 1-1050)
chain: MEVAVEKAVAAAAAASAAASGGPSAAPSGENEAESRQGPDSERGGEAARLNLLDTCAVCHQNIQSRAPKLLPCLHSFCQRCLPAPQRYLMLPAPMLGSAETPPPVPAPGSPVSGSSPFATQVGVIRCPVCSQECAERHIIDNFFVKDTTEVPSSTVEKSNQVCTSCEDNAEANGFCVECVEWLCKTCIRAHQRVKFTKDHTVRQKEEVSPEAVGVTSQRPVFCPFHKKEQLKLYCETCDKLTCRDCQLLEHKEHRYQFIEEAFQNQKVIIDTLITKLMEKTKYIKFTGNQIQNRIIEVNQNQKQVEQDIKVAIFTLMVEINKKGKALLHQLESLAKDHRMKLMQQQQEVAGLSKQLEHVMHFSKWAVSSGSSTALLYSKRLITYRLRHLLRARCDASPVTNNTIQFHCDPSFWAQNIINLGSLVIEDKESQPQMPKQNPVVEQNSQPPSGLSSNQLSKFPTQISLAQLRLQHMQQQVMAQRQQVQRRPAPVGLPNPRMQGPIQQPSISHQQPPPRLINFQNHSPKPNGPVLPPHPQQLRYPPNQNIPRQAIKPNPLQMAFLAQQAIKQWQISSGQGTPSTTNSTSSTPSSPTITSAAGYDGKAFGSPMIDLSSPVGGSYNLPSLPDIDCSSTIMLDNIVRKDTNIDHGQPRPPSNRTVQSPNSSVPSPGLAGPVTMTSVHPPIRSPSASSVGSRGSSGSSSKPAGADSTHKVPVVMLEPIRIKQENSGPPENYDFPVVIVKQESDEESRPQNANYPRSILTSLLLNSSQSSTSEETVLRSDAPDSTGDQPGLHQDNSSNGKSEWLDPSQKSPLHVGETRKEDDPNEDWCAVCQNGGELLCCEKCPKVFHLSCHVPTLTNFPSGEWICTFCRDLSKPEVEYDCDAPSHNSEKKKTEGLVKLTPIDKRKCERLLLFLYCHEMSLAFQDPVPLTVPDYYKIIKNPMDLSTIKKRLQEDYSMYSKPEDFVADFRLIFQNCAEFNEPDSEVANAGIKLENYFEELLKNLYPEKRFPKPEFRNESEDNKFSDDSDDDFVQPRKKRLKSIEERQLLK
- binding [5]: binds

B4: Myc-TRIM24 (protein, UniProt O15164 1-1050)
chain: B3 chain
- binding [3]: binds
